Measured values reported in doi:10.1101/2020.11.13.381483.
These are yes or no findings as the source states them, for the method shown. Some results given as binding are weak or reduced against the parent protein; the word gives no strength. Sequences can lack the tags named with a protein.

Molecular target: T1, Pds5 C-terminal fragment (aa 702-1277), Gal4 DNA-binding domain fusion (S. cerevisiae) (UniProt Q04264)
T1 sequence: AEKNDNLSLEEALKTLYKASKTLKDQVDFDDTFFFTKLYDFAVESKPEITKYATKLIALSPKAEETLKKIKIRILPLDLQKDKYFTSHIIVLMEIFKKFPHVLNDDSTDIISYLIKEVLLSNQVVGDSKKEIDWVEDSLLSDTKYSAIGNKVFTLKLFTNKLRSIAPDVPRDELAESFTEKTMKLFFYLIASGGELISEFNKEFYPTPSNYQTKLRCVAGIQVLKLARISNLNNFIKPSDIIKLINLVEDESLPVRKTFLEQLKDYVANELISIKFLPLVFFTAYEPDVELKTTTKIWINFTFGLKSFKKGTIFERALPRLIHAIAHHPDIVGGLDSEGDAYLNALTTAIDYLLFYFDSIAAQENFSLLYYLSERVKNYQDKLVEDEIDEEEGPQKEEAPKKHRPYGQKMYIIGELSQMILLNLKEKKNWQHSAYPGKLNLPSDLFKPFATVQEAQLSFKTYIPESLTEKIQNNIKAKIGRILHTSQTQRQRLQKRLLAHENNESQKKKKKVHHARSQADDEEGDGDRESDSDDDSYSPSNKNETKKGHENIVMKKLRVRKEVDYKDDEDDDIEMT
Assay: two-hybrid

- binding: binds weakly
B1: catalytically dead Ulp2 (Ulp2-C624S), Gal4 activation domain fusion (enzyme, UniProt P40537 1-1034)
chain: MSARKRKFNSLKPLDTLNSSRASSPRSSASLPPKRYNTFRKDPKIVDHLNNASTKDFLPVLSMNSESKRQIELSDNDVDNNDEGEGVNSGCSDQDFEPLQSSPLKRHSSLKSTSNGLLFQMSNNLGNGSPEPAVASTSPNGSIISTKLNLNGQFSCVDSKTLRIYRHKAPCIMTFVSDHNHPKFSLYFQQSVIYNSQVNLLDDVELIILDKKNSFMAIILKDLKKVKMILDVNNSSININTNILIWSTASSASNKKIKSIKRFLLMSYSSSIKVEILDHKEQILERLKHLIHPISSSSPSLNMERAINSTKNAFDSLRLKKTKLSTNDDESPQIHTHFLSNKPHGLQSLTKRTRIASLGKKEHSISVPKSNISPSDFYNTNGTETLQSHAVSQLRRSNRFKDVSDPANSNSNSEFDDATTEFETPELFKPSLCYKFNDGSSYTITNQDFKCLFNKDWVNDSILDFFTKFYIESSIEKSIIKREQVHLMSSFFYTKLISNPADYYSNVKKWVNNTDLFSKKYVVIPINISYHWFSCIITNLDAILDFHQNKDKNDAINSDEISINNPLVNILTFDSLRQTHSREIDPIKEFLISYALDKYSIQLDKTQIKMKTCPVPQQPNMSDSGVHVILNIRKFFENPVETIDVWKNSKIKSKHFTAKMINKYFDKNERNSARKNLRHTLKLLQLNYISYLKKENLYEEVMQMEEKKSTNINNNENYDDDDEEIQIIENIDQSSKDNNAQLTSEPPCSRSSSISTTEREPTELHNSVVRQPTGEIITDNEDPVRAASPETASVSPPIRHNILKSSSPFISESANETEQEEFTSPYFGRPSLKTRAKQFEGVSSPIKNDQALSSTHDIMMPSPKPKRIYPSKKIPQLSSHVQSLSTDSMERQSSPNNTNIVISDTEQDSRLGVNSESKNTSGIVNRDDSDVNLIGSSLPNVAEKNHDNTQESNGNNDSLGKILQNVDKELNEKLVDIDDVAFSSPTRGIPRTSATSKGSNAQLLSNYGDENNQSQDSVWDEGRDNPILLEDEDP
